Measurements as given in article PMC12309053.

T1: SRSF7-GFP fusion product (Serine/arginine-rich splicing factor 7, GFP-tagged at the C-terminus, from a BAC) (human), Q16629
T1 chain: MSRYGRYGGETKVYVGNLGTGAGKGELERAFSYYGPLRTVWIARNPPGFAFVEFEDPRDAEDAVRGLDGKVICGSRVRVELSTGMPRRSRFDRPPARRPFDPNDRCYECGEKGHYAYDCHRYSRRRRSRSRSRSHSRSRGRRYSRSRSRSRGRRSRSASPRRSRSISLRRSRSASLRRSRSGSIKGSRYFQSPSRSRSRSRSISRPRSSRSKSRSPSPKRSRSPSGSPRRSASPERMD

T2: SRSF7-GFP fusion product (Serine/arginine-rich splicing factor 7, GFP-tagged at the C-terminus, from a BAC) (human) (UniProt Q16629)
T2 sequence: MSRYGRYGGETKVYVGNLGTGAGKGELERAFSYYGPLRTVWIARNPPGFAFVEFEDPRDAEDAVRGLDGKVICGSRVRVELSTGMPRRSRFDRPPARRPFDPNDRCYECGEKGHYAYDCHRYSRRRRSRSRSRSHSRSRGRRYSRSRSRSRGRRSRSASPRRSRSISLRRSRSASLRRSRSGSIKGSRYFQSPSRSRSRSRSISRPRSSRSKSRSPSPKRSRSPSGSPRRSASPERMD


Target: T1, SRSF7-GFP fusion product …
Test: affinity purification with mass spectrometry; GFP-Trap agarose beads on lysates of BAC-SRSF7-GFP MDA-MB-231 cells treated with 0.1% DMSO or 1 µM T-025 for 24 h; EBC buffer, benzonase, 300 mM NaCl, 2 h at 4 °C; MDA-MB-231-GFP cells as negative control; on-bead trypsin digest, label-free quantification, phospho (STY) as variable modification, four biological replicates
Settings: remark: other sources report otherwise

Row | Binder | binding
1 | phosphorylated SRSF4, Q08170 1-494 (protein, here or on the partner: phosphorylated) MPRVYIGRLSYQARERDVERFFKGYGKILEVDLKNGYGFVEFDDLRDADDAVYELNGKDLCGERVIVEHARGPRRDGSYGSGRSGYGYRRSGRDKYGPPTRTEYRLIVENLSSRCSWQDLKDYMRQAGEVTYADAHKGRKNEGVIEFVSYSDMKRALEKLDGTEVNGRKIRLVEDKPGSRRRRSYSRSRSHSRSRSRSRHSRKSRSRSGSSKSSHSKSRSRSRSGSRSRSKSRSRSQSRSRSKKEKSRSPSKEKSRSRSHSAGKSRSKSKDQAEEKIQNNDNVGKPKSRSPSRHKSKSKSRSRSQERRVEEEKRGSVSRGRSQEKSLRQSRSRSRSKGGSRSRSRSRSKSKDKRKGRKRSREESRSRSRSRSKSERSRKRGSKRDSKAGSSKKKKKEDTDRSQSRSPSRSVSKEREHAKSESSQREGRGESENAGTNQETRSRSRSNSKSKPNLPSESRSRSKSASKTRSRSKSRSRSASRSPSRSRSRSHSRS | binds

Target: T2, SRSF7-GFP fusion product (Serine/arginine-rich splicing factor 7, GFP-tagged at the C-terminus, from a BAC) (human)
Test: as above
Settings: not given

Row | Binder | binding
2 | phosphorylated SRSF11 (protein, UniProt Q05519 1-484, phosphorylated) MSNTTVVPSTAGPGPSGGPGGGGGGGGGGGGTEVIQVTNVSPSASSEQMRTLFGFLGKIDELRLFPPDDSPLPVSSRVCFVKFHDPDSAVVAQHLTNTVFVDRALIVVPYAEGVIPDEAKALSLLAPANAVAGLLPGGGLLPTPNPLTQIGAVPLAALGAPTLDPALAALGLPGANLNSQSLAADQLLKLMSTVDPKLNHVAAGLVSPSLKSDTSSKEIEEAMKRVREAQSLISAAIEPDKKEEKRRHSRSRSRSRRRRTPSSSRHRRSRSRSRRRSHSKSRSRRRSKSPRRRRSHSRERGRRSRSTSKTRDKKKEDKEKKRSKTPPKSYSTARRSRSASRERRRRRSRSGTRSPKKPRSPKRKLSRSPSPRRHKKEKKKDKDKERSRDERERSTSKKKKSKDKEKDRERKSESDKDVKQVTRDYDEEEQGYDSEKEKKEEKKPIETGSPKTKECSVEKGTGDSLRESKVNGDDHHEEDMDMSD | binds
3 | SRRM1 (protein, UniProt Q8IYB3 1-904, phosphorylated) MDAGFFRGTSAEQDNRFSNKQKKLLKQLKFAECLEKKVDMSKVNLEVIKPWITKRVTEILGFEDDVVIEFIFNQLEVKNPDSKMMQINLTGFLNGKNAREFMGELWPLLLSAQENIAGIPSAFLELKKEEIKQRQIEQEKLASMKKQDEDKDKRDKEEKESSREKRERSRSPRRRKSRSPSPRRRSSPVRRERKRSHSRSPRHRTKSRSPSPAPEKKEKTPELPEPSVKVKEPSVQEATSTSDILKVPKPEPIPEPKEPSPEKNSKKEKEKEKTRPRSRSRSKSRSRTRSRSPSHTRPRRRHRSRSRSYSPRRRPSPRRRPSPRRRTPPRRMPPPPRHRRSRSPVRRRRRSSASLSGSSSSSSSSRSRSPPKKPPKRTSSPPRKTRRLSPSASPPRRRHRPSPPATPPPKTRHSPTPQQSNRTRKSRVSVSPGRTSGKVTKHKGTEKRESPSPAPKPRKVELSESEEDKGGKMAAADSVQQRRQYRRQNQQSSSDSGSSSSSEDERPKRSHVKNGEVGRRRRHSPSRSASPSPRKRQKETSPRGRRRRSPSPPPTRRRRSPSPAPPPRRRRTPTPPPRRRTPSPPPRRRSPSPRRYSPPIQRRYSPSPPPKRRTASPPPPPKRRASPSPPPKRRVSHSPPPKQRSSPVTKRRSPSLSSKHRKGSSPSRSTREARSPQPNKRHSPSPRPRAPQTSSSPPPVRRGASSSPQRRQSPSPSTRPIRRVSRTPEPKKIKKAASPSPQSVRRVSSSRSVSGSPEPAAKKPPAPPSPVQSQSPSTNWSPAVPVKKAKSPTPSPSPPRNSDQEGGGKKKKKKKDKKHKKDKKHKKHKKHKKEKAVAAAAAAAVTPAAIAAATTTLAQEEPVAAPEPKKETESEAEDNLDDLEKHLREKALRSMRKAQVSPQS | binds
4 | TRA2B (protein, UniProt P62995 1-288, phosphorylated) MSDSGEQNYGERESRSASRSGSAHGSGKSARHTPARSRSKEDSRRSRSKSRSRSESRSRSRRSSRRHYTRSRSRSRSHRRSRSRSYSRDYRRRHSHSHSPMSTRRRHVGNRANPDPNCCLGVFGLSLYTTERDLREVFSKYGPIADVSIVYDQQSRRSRGFAFVYFENVDDAKEAKERANGMELDGRRIRVDFSITKRPHTPTPGIYMGRPTYGSSRRRDYYDRGYDRGYDDRDYYSRSYRGGGGGGGGWRAAQDRDQIYRRRSPSPYYSRGGYRSRSRSRSYSPRRY | binds
5 | SCAF11 (protein, UniProt Q99590 1-1463) MKKKTVCTLNMGDKKYEDMEGEENGDNTISTGLLYSEADRCPICLNCLLEKEVGFPESCNHVFCMTCILKWAETLASCPIDRKPFQAVFKFSALEGYVKVQVKKQLRETKDKKNENSFEKQVSCHENSKSCIRRKAIVREDLLSAKVCDLKWIHRNSLYSETGGKKNAAIKINKPQRSNWSTNQCFRNFFSNMFSSVSHSGESSFTYRAYCTEFIEASEISALIRQKRHELELSWFPDTLPGIGRIGFIPWNVETEVLPLISSVLPRTIFPTSTISFEHFGTSCKGYALAHTQEGEEKKQTSGTSNTRGSRRKPAMTTPTRRSTRNTRAETASQSQRSPISDNSGCDAPGNSNPSLSVPSSAESEKQTRQAPKRKSVRRGRKPPLLKKKLRSSVAAPEKSSSNDSVDEETAESDTSPVLEKEHQPDVDSSNICTVQTHVENQSANCLKSCNEQIEESEKHTANYDTEERVGSSSSESCAQDLPVLVGEEGEVKKLENTGIEANVLCLESEISENILEKGGDPLEKQDQISGLSQSEVKTDVCTVHLPNDFPTCLTSESKVYQPVSCPLSDLSENVESVVNEEKITESSLVEITEHKDFTLKTEELIESPKLESSEGEIIQTVDRQSVKSPEVQLLGHVETEDVEIIATCDTFGNEDFNNIQDSENNLLKNNLLNTKLEKSLEEKNESLTEHPRSTELPKTHIEQIQKHFSEDNNEMIPMECDSFCSDQNESEVEPSVNADLKQMNENSVTHCSENNMPSSDLADEKVETVSQPSESPKDTIDKTKKPRTRRSRFHSPSTTWSPNKDTPQEKKRPQSPSPRRETGKESRKSQSPSPKNESARGRKKSRSQSPKKDIARERRQSQSRSPKRDTTRESRRSESLSPRRETSRENKRSQPRVKDSSPGEKSRSQSRERESDRDGQRRERERRTRKWSRSRSHSRSPSRCRTKSKSSSFGRIDRDSYSPRWKGRWANDGWRCPRGNDRYRKNDPEKQNENTRKEKNDIHLDADDPNSADKHRNDCPNWITEKINSGPDPRTRNPEKLKESHWEENRNENSGNSWNKNFGSGWVSNRGRGRGNRGRGTYRSSFAYKDQNENRWQNRKPLSGNSNSSGSESFKFVEQQSYKRKSEQEFSFDTPADRSGWTSASSWAVRKTLPADVQNYYSRRGRNSSGPQSGWMKQEEETSGQDSSLKDQTNQQVDGSQLPINMMQPQMNVMQQQMNAQHQPMNIFPYPVGVHAPLMNIQRNPFNIHPQLPLHLHTGVPLMQVATPTSVSQGLPPPPPPPPPSQQVNYIASQPDGKQLQGIPSSSHVSNNMSTPVLPAPTAAPGNTGMVQGPSSGNTSSSSHSKASNAAVKLAESKVSVAVEASADSSKTDKKLQIQEKAAQEVKLAIKPFYQNKDITKEEYKEIVRKAVDKVCHSKSGEVNSTKVANLVKAYVDKYKYSRKGSQKKTLEEPVSTEKNIG | binds
6 | CRNKL1 (protein, UniProt Q9BZJ0 1-848) MTATVENLTFQKDTLGNAVDKNTSRLELRSYSLAGRHGSTEPLVLAWSSQFRRLTWGCALDALHRSPCVAASQHGVTHLIRSSRTPHSTRCRKEDAQPGHHGNGAASVTAQARGQRSVLQVPLPVPRSCLFSESFVVSVSSQSRFLASVPGTGVQRSTAADMAASTAAGKQRIPKVAKVKNKAPAEVQITAEQLLREAKERELELLPPPPQQKITDEEELNDYKLRKRKTFEDNIRKNRTVISNWIKYAQWEESLKEIQRARSIYERALDVDYRNITLWLKYAEMEMKNRQVNHARNIWDRAITTLPRVNQFWYKYTYMEEMLGNVAGARQVFERWMEWQPEEQAWHSYINFELRYKEVDRARTIYERFVLVHPDVKNWIKYARFEEKHAYFAHARKVYERAVEFFGDEHMDEHLYVAFAKFEENQKEFERVRVIYKYALDRISKQDAQELFKNYTIFEKKFGDRRGIEDIIVSKRRFQYEEEVKANPHNYDAWFDYLRLVESDAEAEAVREVYERAIANVPPIQEKRHWKRYIYLWINYALYEELEAKDPERTRQVYQASLELIPHKKFTFAKMWILYAQFEIRQKNLSLARRALGTSIGKCPKNKLFKVYIELELQLREFDRCRKLYEKFLEFGPENCTSWIKFAELETILGDIDRARAIYELAISQPRLDMPEVLWKSYIDFEIEQEETERTRNLYRRLLQRTQHVKVWISFAQFELSSGKEGSLTKCRQIYEEANKTMRNCEEKEERLMLLESWRSFEEEFGTASDKERVDKLMPEKVKKRRKVQTDDGSDAGWEEYFDYIFPEDAANQPNLKLLAMAKLWKKQQQEKEDAEHHPDEDVDESES | binds
7 | SRSF2 (protein, UniProt Q01130 1-221) MSYGRPPPDVEGMTSLKVDNLTYRTSPDTLRRVFEKYGRVGDVYIPRDRYTKESRGFAFVRFHDKRDAEDAMDAMDGAVLDGRELRVQMARYGRPPDSHHSRRGPPPRRYGGGGYGRRSRSPRRRRRSRSRSRSRSRSRSRSRYSRSKSRSRTRSRSRSTSKSRSARRSKSKSSSVSRSRSRSRSRSRSRSPPPVSKRESKSRSRSKSPPKSPEEEGAVSS | binds

Results are given in words; binding and its absence hold for the method and conditions named. In cells and extracts the contact can be indirect. A yes stands for co-enrichment or nearness to the bait. Other partners may have been found. Where a sequence is shown, tags or fusion partners need not be part of it.
